Values quoted from earlier work in US20160271090A1, “FRATAXIN ENHANCER” (TOKYO UNIVERSITY OF AGRICULTURE, priority 2013, published 2016).
For at least one compound, name, drawing or mass did not settle the structure.

Tested on: frataxin protein in mouse fibroblasts (LMTK cells)
Settings: addition of protoporphyrin IX; cited from earlier work

## C=CC1=C(C)c2cc3[nH]c(cc4nc(cc5[nH]c(cc1n2)c(C)c5CCC(=O)O)C(CCC(=O)O)=C4C)c(C)c3C=C [protoporphyrin IX]
  amount of frataxin protein: decreased
